In assay [1] the target is T1, HA-Sml1 (3XHA tag fused to the N-terminus of Sml1, plasmid pWJ699) (Saccharomyces cerevisiae (yeast)) (UniProt Q04964).
T1 sequence: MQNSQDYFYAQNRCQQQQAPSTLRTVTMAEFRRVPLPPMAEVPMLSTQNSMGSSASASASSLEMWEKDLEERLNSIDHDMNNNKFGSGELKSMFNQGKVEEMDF
Put plainly: co-immunoprecipitation with anti-HA antibody and protein-G beads from 500 µg yeast extract, Western blot with anti-GST (upper panel) and anti-HA (lower panel). In general terms: In western blotting, separated proteins are transferred to a membrane and probed.

By UniProt entry, the sequences of proteins in these tests, tags left out. Where a name states a change or a piece, a line headed by the entry shows the natural chain unless it says otherwise.
UniProt P04386: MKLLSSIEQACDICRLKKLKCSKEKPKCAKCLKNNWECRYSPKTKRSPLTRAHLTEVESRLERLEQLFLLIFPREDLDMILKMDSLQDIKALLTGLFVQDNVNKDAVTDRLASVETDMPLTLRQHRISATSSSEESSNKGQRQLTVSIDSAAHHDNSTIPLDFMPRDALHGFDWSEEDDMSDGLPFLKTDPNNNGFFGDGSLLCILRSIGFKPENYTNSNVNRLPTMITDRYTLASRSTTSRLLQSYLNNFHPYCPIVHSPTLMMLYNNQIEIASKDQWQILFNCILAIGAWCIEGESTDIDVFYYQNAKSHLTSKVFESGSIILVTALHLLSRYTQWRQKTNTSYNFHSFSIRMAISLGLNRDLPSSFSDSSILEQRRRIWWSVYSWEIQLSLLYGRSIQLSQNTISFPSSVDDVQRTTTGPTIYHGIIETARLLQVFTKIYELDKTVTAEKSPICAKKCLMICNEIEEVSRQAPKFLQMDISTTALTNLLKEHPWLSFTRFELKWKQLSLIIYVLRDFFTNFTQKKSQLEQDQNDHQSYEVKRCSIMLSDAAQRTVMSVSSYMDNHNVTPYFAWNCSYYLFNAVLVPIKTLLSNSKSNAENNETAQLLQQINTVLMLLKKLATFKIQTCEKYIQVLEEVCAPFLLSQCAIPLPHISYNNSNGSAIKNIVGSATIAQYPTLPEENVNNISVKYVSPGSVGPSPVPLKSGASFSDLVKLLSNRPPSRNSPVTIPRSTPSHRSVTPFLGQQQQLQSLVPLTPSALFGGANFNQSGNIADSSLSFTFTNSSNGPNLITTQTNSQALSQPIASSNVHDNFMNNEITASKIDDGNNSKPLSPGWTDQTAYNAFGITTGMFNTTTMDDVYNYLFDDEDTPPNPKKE

For assay [2], the target named is T2, GST-Rnr1 (glutathione-S-transferase fused to Rnr1, plasmid pWJ744) (yeast (Saccharomyces cerevisiae)) (UniProt P21524).
T2 sequence (looked up): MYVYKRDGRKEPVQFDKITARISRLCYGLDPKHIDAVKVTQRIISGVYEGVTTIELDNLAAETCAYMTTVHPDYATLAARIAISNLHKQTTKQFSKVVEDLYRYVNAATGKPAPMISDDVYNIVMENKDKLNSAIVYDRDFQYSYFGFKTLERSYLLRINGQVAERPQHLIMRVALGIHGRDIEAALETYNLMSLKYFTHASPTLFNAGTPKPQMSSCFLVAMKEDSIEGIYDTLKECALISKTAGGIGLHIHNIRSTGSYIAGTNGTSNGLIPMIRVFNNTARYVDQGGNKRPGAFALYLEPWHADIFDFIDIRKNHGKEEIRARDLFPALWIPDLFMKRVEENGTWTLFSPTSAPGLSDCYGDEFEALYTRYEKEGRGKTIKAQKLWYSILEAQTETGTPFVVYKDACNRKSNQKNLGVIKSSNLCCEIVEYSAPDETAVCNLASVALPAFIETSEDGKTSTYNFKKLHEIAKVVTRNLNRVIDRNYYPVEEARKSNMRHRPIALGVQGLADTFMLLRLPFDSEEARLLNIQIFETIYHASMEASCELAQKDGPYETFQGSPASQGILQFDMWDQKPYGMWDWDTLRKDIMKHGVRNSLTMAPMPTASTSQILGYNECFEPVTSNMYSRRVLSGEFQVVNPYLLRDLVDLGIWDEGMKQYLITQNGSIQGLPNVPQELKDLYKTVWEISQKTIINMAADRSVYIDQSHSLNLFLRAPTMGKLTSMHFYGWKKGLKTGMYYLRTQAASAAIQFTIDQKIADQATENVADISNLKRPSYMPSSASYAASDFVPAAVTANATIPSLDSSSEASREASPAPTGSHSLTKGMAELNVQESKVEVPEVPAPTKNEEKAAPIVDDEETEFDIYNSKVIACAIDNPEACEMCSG
Kind of assay: glutathione-bead pull-down from 500 µg yeast extract, Western blot with anti-HA (lower panel) and anti-GST (upper panel).

Assay [3] addresses T2, GST-Rnr1 (glutathione-S-transferase fused to Rnr1, plasmid pWJ744) (yeast (Saccharomyces cerevisiae)). Kind of assay: co-immunoprecipitation, figure legend of FIG. 6.
The target is the same in assay [4]. Kind of assay: summary sentence: two-hybrid and co-immunoprecipitation.
The target is the same in assay [5]. Put plainly: co-immunoprecipitation / glutathione bead pull-down from yeast extract, western blot.
For assay [6], the target named is GBD-Rnr1 two-hybrid fusion (plasmid pWJ731) (yeast (Saccharomyces cerevisiae)) (UniProt P04386+P21524). Kind of assay: yeast two-hybrid, GAD-Sml1 with GBD-Rnr1.

For three molecules, binding results are on record in patent publication US7125658.

Results are given in words; binding and its absence hold for the method and conditions named. For part of these data: In cells and extracts the contact can be indirect. Some entries that bind do so weakly or less than the wild type. Where a sequence is shown, tags or fusion partners need not be part of it.

B1: GST-Rnr1 (glutathione-S-transferase fused to Rnr1, plasmid pWJ744) (protein, yeast (Saccharomyces cerevisiae), UniProt P21524 1-888, looked up, not shown: a dimerising Fc or GST)
chain: MYVYKRDGRKEPVQFDKITARISRLCYGLDPKHIDAVKVTQRIISGVYEGVTTIELDNLAAETCAYMTTVHPDYATLAARIAISNLHKQTTKQFSKVVEDLYRYVNAATGKPAPMISDDVYNIVMENKDKLNSAIVYDRDFQYSYFGFKTLERSYLLRINGQVAERPQHLIMRVALGIHGRDIEAALETYNLMSLKYFTHASPTLFNAGTPKPQMSSCFLVAMKEDSIEGIYDTLKECALISKTAGGIGLHIHNIRSTGSYIAGTNGTSNGLIPMIRVFNNTARYVDQGGNKRPGAFALYLEPWHADIFDFIDIRKNHGKEEIRARDLFPALWIPDLFMKRVEENGTWTLFSPTSAPGLSDCYGDEFEALYTRYEKEGRGKTIKAQKLWYSILEAQTETGTPFVVYKDACNRKSNQKNLGVIKSSNLCCEIVEYSAPDETAVCNLASVALPAFIETSEDGKTSTYNFKKLHEIAKVVTRNLNRVIDRNYYPVEEARKSNMRHRPIALGVQGLADTFMLLRLPFDSEEARLLNIQIFETIYHASMEASCELAQKDGPYETFQGSPASQGILQFDMWDQKPYGMWDWDTLRKDIMKHGVRNSLTMAPMPTASTSQILGYNECFEPVTSNMYSRRVLSGEFQVVNPYLLRDLVDLGIWDEGMKQYLITQNGSIQGLPNVPQELKDLYKTVWEISQKTIINMAADRSVYIDQSHSLNLFLRAPTMGKLTSMHFYGWKKGLKTGMYYLRTQAASAAIQFTIDQKIADQATENVADISNLKRPSYMPSSASYAASDFVPAAVTANATIPSLDSSSEASREASPAPTGSHSLTKGMAELNVQESKVEVPEVPAPTKNEEKAAPIVDDEETEFDIYNSKVIACAIDNPEACEMCSG
B1: in assay [1], the binding result is “binds”.

B2: HA-Sml1 (3XHA tag fused to the N-terminus of Sml1, plasmid pWJ699) (protein, not shown: small tags and cut ends)
chain: MQNSQDYFYAQNRCQQQQAPSTLRTVTMAEFRRVPLPPMAEVPMLSTQNSMGSSASASASSLEMWEKDLEERLNSIDHDMNNNKFGSGELKSMFNQGKVEEMDF
On to B2, for which the binding entry in assay [2], in assay [3], in assay [4] and in assay [5] was “binds” throughout.

B3: GAD-Sml1 two-hybrid fusion (plasmid pWJ684, pACTII) (protein, not shown: large carriers)
chain: MQNSQDYFYAQNRCQQQQAPSTLRTVTMAEFRRVPLPPMAEVPMLSTQNSMGSSASASASSLEMWEKDLEERLNSIDHDMNNNKFGSGELKSMFNQGKVEEMDF
For the molecule B3, in assay [6], the binding result is reported as “binds”.
